Test results from publication PMC6555932.
No constants are given. Whether binding was seen depends on the method and setting. Some binding calls cover weakened binding; strength is not graded here.

Sequences of proteins named here, by UniProt entry; tags and fusion partners are left off. Residues count along the entry.
UniProt P05067, residues 672-713: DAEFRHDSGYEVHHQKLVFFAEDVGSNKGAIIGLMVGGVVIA

Target: Oligomerized amyloid β protein 1-42 (UniProt P05067)
Assay: far-Western, overlay or dot blot; 2 μL of oligomerized Aβ (100 μM; 0.2 nmol) or purified GFP (approx. 50 μM; 0.1 nmol) spotted on nitrocellulose, blocked in 0.3% BSA in PBS, incubated with a mixture of purified hMIF and GFP at approx. 5 μM at 4 °C overnight; detected with anti-MIF (D-2) and polyclonal anti-GFP antibodies; both purified

B1: Macrophage migration inhibitory factor (human, recombinant) (protein, UniProt P14174 1-115)
chain: MPMFIVNTNVPRASVPDGFLSELTQQLAQATGKPPQYIAVHVVPDQLMAFGGSSEPCALCSLHSIGKIGGAQNRSYSKLLCGLLAERLRISPDRVYINYYDMNAANVGWNNSTFA
In the case of B1, the binding is reported as “binds”.
